Drawing on publication doi:10.1101/2020.11.16.378398, this text covers binding for three molecules.

Holding throughout (test): co-IP
Experiment [1] deals with T1, HA-tagged RNF12 WT (1-600) (mouse) (UniProt Q9WTV7).
T1 sequence: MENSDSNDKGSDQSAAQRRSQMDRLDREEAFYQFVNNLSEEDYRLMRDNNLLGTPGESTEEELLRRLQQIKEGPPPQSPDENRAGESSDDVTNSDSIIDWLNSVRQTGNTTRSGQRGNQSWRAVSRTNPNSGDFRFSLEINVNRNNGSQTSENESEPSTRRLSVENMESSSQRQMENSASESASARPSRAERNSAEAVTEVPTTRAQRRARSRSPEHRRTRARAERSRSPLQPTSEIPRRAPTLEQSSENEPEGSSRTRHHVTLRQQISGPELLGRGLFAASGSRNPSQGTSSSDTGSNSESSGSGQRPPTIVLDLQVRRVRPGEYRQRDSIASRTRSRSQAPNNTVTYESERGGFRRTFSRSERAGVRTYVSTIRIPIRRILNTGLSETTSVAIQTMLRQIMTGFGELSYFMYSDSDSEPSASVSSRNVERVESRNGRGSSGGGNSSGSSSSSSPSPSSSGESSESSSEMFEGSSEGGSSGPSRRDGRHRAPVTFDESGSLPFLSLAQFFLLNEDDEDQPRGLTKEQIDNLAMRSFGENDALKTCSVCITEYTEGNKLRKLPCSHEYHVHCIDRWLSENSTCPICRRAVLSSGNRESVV

For experiment [2], the target named is T2, HA-tagged RNF12 Δ326-423 (ΔBR) (mouse) (UniProt Q9WTV7).
T2 sequence: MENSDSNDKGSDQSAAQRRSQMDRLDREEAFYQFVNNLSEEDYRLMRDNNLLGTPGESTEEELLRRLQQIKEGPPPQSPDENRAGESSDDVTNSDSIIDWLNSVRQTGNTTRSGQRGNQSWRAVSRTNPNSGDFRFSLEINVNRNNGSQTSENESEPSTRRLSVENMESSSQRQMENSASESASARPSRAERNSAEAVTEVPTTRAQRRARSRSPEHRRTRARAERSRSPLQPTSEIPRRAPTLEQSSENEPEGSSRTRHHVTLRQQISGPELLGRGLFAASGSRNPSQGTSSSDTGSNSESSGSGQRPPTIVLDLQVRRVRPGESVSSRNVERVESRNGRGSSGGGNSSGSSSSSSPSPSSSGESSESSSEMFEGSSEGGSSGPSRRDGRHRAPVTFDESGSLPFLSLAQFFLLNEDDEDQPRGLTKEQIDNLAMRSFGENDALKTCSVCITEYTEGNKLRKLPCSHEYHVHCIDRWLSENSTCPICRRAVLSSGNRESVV

In experiment [3] the target is T3, HA-tagged RNF12 Δ502-513 (ΔNES) (mouse) (UniProt Q9WTV7).
T3 sequence: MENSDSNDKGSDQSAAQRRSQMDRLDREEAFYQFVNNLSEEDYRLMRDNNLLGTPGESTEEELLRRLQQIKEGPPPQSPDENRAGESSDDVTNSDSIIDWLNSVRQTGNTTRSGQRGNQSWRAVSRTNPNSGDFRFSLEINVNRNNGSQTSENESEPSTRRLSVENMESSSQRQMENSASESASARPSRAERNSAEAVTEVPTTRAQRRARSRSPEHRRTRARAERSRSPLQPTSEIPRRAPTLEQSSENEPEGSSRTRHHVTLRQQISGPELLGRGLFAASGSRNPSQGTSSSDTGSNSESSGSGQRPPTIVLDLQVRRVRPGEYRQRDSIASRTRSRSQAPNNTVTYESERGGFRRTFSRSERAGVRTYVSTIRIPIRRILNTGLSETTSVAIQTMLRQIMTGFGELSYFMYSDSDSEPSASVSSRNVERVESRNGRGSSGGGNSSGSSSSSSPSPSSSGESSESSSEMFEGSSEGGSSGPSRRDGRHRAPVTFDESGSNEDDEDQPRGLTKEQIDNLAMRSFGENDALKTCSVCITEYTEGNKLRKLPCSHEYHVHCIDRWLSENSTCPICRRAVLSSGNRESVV

The target in experiment [4] is T4, HA-tagged RNF12 Δ546-587 (ΔRING) (mouse) (UniProt Q9WTV7).
T4 sequence: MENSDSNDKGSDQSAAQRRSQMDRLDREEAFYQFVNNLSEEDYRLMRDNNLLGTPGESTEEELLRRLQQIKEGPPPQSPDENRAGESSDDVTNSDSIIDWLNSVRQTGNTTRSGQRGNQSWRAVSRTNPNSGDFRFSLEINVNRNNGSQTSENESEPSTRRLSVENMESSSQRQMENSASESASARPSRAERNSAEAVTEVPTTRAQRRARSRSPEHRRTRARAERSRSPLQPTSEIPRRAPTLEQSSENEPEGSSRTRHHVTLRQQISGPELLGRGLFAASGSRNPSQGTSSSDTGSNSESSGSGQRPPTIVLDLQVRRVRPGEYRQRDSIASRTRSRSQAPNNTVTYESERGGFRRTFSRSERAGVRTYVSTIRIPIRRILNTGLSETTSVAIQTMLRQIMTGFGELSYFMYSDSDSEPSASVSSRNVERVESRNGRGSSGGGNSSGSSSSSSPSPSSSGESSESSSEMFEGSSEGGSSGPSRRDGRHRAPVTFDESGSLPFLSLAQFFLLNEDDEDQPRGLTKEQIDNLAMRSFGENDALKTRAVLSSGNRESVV

Experiment [5] has as its target T5, HA-tagged RNF12 Δ1-206 (ΔN) (mouse) (UniProt Q9WTV7).
T5 sequence: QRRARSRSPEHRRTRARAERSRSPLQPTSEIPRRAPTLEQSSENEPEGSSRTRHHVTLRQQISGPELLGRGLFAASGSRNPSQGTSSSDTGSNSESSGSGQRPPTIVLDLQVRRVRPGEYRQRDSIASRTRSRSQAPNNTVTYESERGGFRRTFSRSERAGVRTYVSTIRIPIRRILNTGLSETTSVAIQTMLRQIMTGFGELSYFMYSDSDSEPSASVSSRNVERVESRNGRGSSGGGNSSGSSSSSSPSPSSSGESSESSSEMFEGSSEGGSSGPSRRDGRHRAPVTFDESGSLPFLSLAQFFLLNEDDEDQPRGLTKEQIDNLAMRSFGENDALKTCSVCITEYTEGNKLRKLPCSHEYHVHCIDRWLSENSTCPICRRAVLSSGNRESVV

No constants are given. Whether binding was seen depends on the method and setting. In cells and extracts the contact can be indirect. Some binding calls cover weakened binding; strength is not graded here. Sequences can lack the tags named with a protein.

B1: HA-tagged RNF12 WT (1-600) (protein, UniProt Q9WTV7 1-600)
chain: T1 sequence
For B1, the binding entry in experiment [1] is listed as “binds”.

B2: HA-tagged RNF12 Δ326-423 (ΔBR) (protein, UniProt Q9WTV7)
chain: T2 sequence
Regarding B2, the binding result in experiment [2] is reported as “no binding”.

B3: FLAG-tagged human USP26 (enzyme, UniProt Q9BXU7 1-913)
chain: MAALFLRGFVQIGNCKTGISKSKEAFIEAVERKKKDRLVLYFKSGKYSTFRLSDNIQNVVLKSYRGNQNHLHLTLQNNNGLFIEGLSSTDAEQLKIFLDRVHQNEVQPPVRPGKGGSVFSSTTQKEINKTSFHKVDEKSSSKSFEIAKGSGTGVLQRMPLLTSKLTLTCGELSENQHKKRKRMLSSSSEMNEEFLKENNSVEYKKSKADCSRCVSYNREKQLKLKELEENKKLECESSCIMNATGNPYLDDIGLLQALTEKMVLVFLLQQGYSDGYTKWDKLKLFFELFPEKICHGLPNLGNTCYMNAVLQSLLSIPSFADDLLNQSFPWGKIPLNALTMCLARLLFFKDTYNIEIKEMLLLNLKKAISAAAEIFHGNAQNDAHEFLAHCLDQLKDNMEKLNTIWKPKSEFGEDNFPKQVFADDPDTSGFSCPVITNFELELLHSIACKACGQVILKTELNNYLSINLPQRIKAHPSSIQSTFDLFFGAEELEYKCAKCEHKTSVGVHSFSRLPRILIVHLKRYSLNEFCALKKNDQEVIISKYLKVSSHCNEGTRPPLPLSEDGEITDFQLLKVIRKMTSGNISVSWPATKESKDILAPHIGSDKESEQKKGQTVFKGASRRQQQKYLGKNSKPNELESVYSGDRAFIEKEPLAHLMTYLEDTSLCQFHKAGGKPASSPGTPLSKVDFQTVPENPKRKKYVKTSKFVAFDRIINPTKDLYEDKNIRIPERFQKVSEQTQQCDGMRICEQAPQQALPQSFPKPGTQGHTKNLLRPTKLNLQKSNRNSLLALGSNKNPRNKDILDKIKSKAKETKRNDDKGDHTYRLISVVSHLGKTLKSGHYICDAYDFEKQIWFTYDDMRVLGIQEAQMQEDRRCTGYIFFYMHNEIFEEMLKREENAQLNSKEVEETLQKE
For B3, the binding result in experiment [3] is listed as “binds”; in experiment [4], “binds”; in experiment [2], “no binding”; in experiment [5], “binds”; in experiment [1], “binds”.
